Experimental data reported in paper PMC9925730, “Controlled sequential in situ self-assembly and disassembly of a fluorogenic cisplatin prodrug for cancer theranostics” (Nature Communications, 2023).

What was measured:
[1] = system: s.c. HeLa tumors; assay: Fluorescence imaging of varying sizes of s.c. HeLa tumors; assay type: in vivo, mice
Procedure: page 21: Supplementary Figure 29. Fluorescence imaging of varying sizes of s.c. HeLa tumors in mice. (a) Representative fluorescence images of mice with s.c. HeLa tumors at a mean size of 3.8 ± 0.8, 22.1 ± 1.6, 46.4 ± 4.2, 75.9 ± 4.5 and 125.5 ± 12.7 mm3, respectively. […]) was i.v. injected into mice, and the whole-body fluorescence images were acquired at 0 and 4 h. Red arrows indicate the locations of tumors, and the black circle indicates the position chosen for the background in each mouse. (b) Calculated SBR in mice of different tumor sizes. […] Data denote mean ± s.d. (n = 3 independent animals). […] 21 (1 picture or pasted object on this page, not shown here)

[2] = GSH-triggered reduction, disassembly of Pt^IVNPs and CDDP release in solution (HPLC, DLS, TEM, ICP-OES); details: Supplementary Fig 9 c
Procedure: To evaluate the ALP-triggered dephosphorylation and in situ self-assembly process, a solution of P-CyPt (10 μM) in Tris buffer (1 mL) was incubated with ALP (100 U/L) at 37 °C. HPLC, DLS, and TEM analyses were performed at 0, 5, 10, 15, 20, and 30 min. To evaluate the GSH-triggered reduction and disassembly process, P-CyPt (10 μM) in Tris buffer (1 mL) was first incubated with ALP (100 U/L) at 37 °C for 30 min to allow the formation of Pt^IVNPs. The solution was then treated with 10 mM GSH at 37 °C, which was monitored by HPLC, DLS, and TEM at 10, 20, 30, 40, 50, and 60 min.
(a) 5 mM GSH 10 mM GSH(b ) (c)
60 min 60 min CyPt Cy- CO O H
Time (min) Time (min) Time (min)
Supplementary Figure 9. HPLC traces of the time-dependent conversion of PtIVNPs (CyPt) into Cy-COOH under incubation with 5 mM (a) or 10 mM GSH (b) in Tris buffer. (c) The conversion curves of PtIVNPs (CyPt) into Cy-COOH under incubation with 5 mM (red) or 10 mM GSH (black) in Tris buffer. P-CyPt (10 μM) was incubated with ALP (100 U/L, 37 °C) in Tris buffer for 30 min to allow complete dephosphorylation and in situ self-assembly into PtIVNPs. Then, GSH at a concentration of 5 mM or 10 mM was added and incubated for another 0, 10, 20, 30, 40, 50, and 60 min. The amounts of CyPt and Cy-COOH at each time point were quantified by HPLC.
Date are mean ± s.d. (n = 3 independent experiments). […]
Release of CDDP from PtIVNPs during disassembly process. P-CyPt (10 μM) in 5 mL Tris buffer was incubated with ALP (100 U/L) at 37 °C for 30 min to form PtIVNPs, followed by addition with 10 mM GSH at 37 °C. After 10, 20, 30, 40, 50 and 60 min, 50 mM N-ethylmaleimide was added into the solution to scavenge GSH. The reaction solution was centrifuged at 13,000 × g and the supernatant was collected. The supernatants were digested with concentrated HNO3 (65~70%) and HCl (36~38%) at 90 °C for 24 h. The solution was diluted to 5 mL 2% HNO3 and 5% HCl solution, and the concentration of Pt element was measured by ICP-OES, which was further applied to calculate the amount of CDDP (denoted as NPt) released in the solution. The percentage of Pt release at each time point was calculated according to the formula:
Pt release % = NPt/N0 × 100% (9)
Where N0 represents the total amount of Pt in the in situ formed PtIVNPs, and NPt represents the amount of Pt released from PtIVNPs following incubation with GSH.
Characterization of enzyme kinetics of P-CyPt towards ALP. Briefly, varying concentrations of P-CyPt (0.5, 1.0, 2.0, 3.0, 4.0, and 5.0 μM) in 100 μL Tris buffer were placed in a 96-well black plate. The reactions were initiated upon addition of 100 μL ALP (30 U/L) to each solution. The resulting fluorescence intensities in each well in the first five minutes were recorded on a Spark™ 10M Multimode Microplate Reader (λex/em = 680/710 nm). The amount of CyPt at each time point was determined by a standard curve under the same conditions. Kinetics values, including Km and Vmax, were determined according to the Lineweaver-Burk plot.
Determination of the sensitivity of P-CyPt towards ALP. To evaluate the sensitivity of P-CyPt towards ALP, P-CyPt (10 μM) was incubated with varying concentrations of […]
30 min, and the fluorescence spectra were then recorded on a HORIBA Jobin Yvon Fluoromax-4 fluorometer, with an excitation at 680 nm. The resulting fluorescence intensities at 710 nm were plotted to the con centrations of ALP, and a linear regression fitted from 0 -20 U/L ALP was obtained, affording the slope k. The detection limit was calculated from 3σ/k, where σ represents the standard deviation of 11 blank […]
Determination of the specificity towards ALP. The specificity towards ALP in vitro was evaluated based on fluorescence, respectively. P-CyPt (10 μM) in Tris buffer was incubated with 10 nmol/L of MMP-2, 100 U/L of γ-glutamyl transferase (GGT), 100 U/L Cathepsin B (CTB), 0.2 μg/mL of Caspase-3/7, 2.5 mg/mL of Trypsin, 100 U/L of ALP or 100 U/L ALP pretreated with its inhibitors, Na 3VO4 (100 μM) for 10 min. The […]

With `CC1(C)C(/C=C/C2=C3Oc4cc(OP(=O)(O)O)c(Cl)cc4C=C3CCC2)=[N+](CCCNC(=O)[C@@H](Cc2ccccc2)NC(=O)[C@@H](Cc2ccccc2)NC(=O)CCC(=O)[O][Pt]([NH2])([NH2])([OH])([Cl])[Cl])c2ccccc21` [P-CyPt] the “FL intensity of tumor (Supplementary Fig.29 (c))” value (“FL intensity of tumor” for short) ([1]; 1st size group (mean tumor size 3.763 mm3), individual mice) was 4.65E+08 and 4.03E+08 and 4.44E+08, the “FL intensity of tumor” value ([1]; 1st size group (mean tumor size 3.763 mm3), mean of 3 mice) was 4.37E+08 and the “FL intensity of tumor” value ([1]; 2nd size group (mean tumor size 22.090 mm3), individual mice) was 5.42E+08 and 5.79E+08 and 6.19E+08. The “FL intensity of tumor” value ([1]; 2nd size group (mean tumor size 22.090 mm3), mean of 3 mice) was 5.80E+08, the “FL intensity of tumor” value ([1]; 3rd size group (mean tumor size 46.413 mm3), individual mice) was 7.28E+08 and 7.16E+08 and 7.94E+08 and the “FL intensity of tumor” value ([1]; 3rd size group (mean tumor size 46.413 mm3), mean of 3 mice) was 7.46E+08. The “FL intensity of tumor” value ([1]; 4th size group (mean tumor size 75.889 mm3), individual mice) was 8.91E+08 and 9.02E+08 and 8.21E+08, the “FL intensity of tumor” value ([1]; 4th size group (mean tumor size 75.889 mm3), mean of 3 mice) was 8.72E+08 and the “FL intensity of tumor” value ([1]; 5th size group (mean tumor size 125.544 mm3), individual mice) was 8.74E+08 and 9.61E+08 and 8.79E+08. For the same molecule, the “FL intensity of tumor” value ([1]; 5th size group (mean tumor size 125.544 mm3), mean of 3 mice) was 9.05E+08.
For `CC1(C)C(/C=C/C2=C3Oc4cc(O)c(Cl)cc4C=C3CCC2)=[N+](CCCNC(=O)[C@@H](Cc2ccccc2)NC(=O)[C@@H](Cc2ccccc2)NC(=O)CCC(=O)[O][Pt]([NH2])([NH2])([OH])([Cl])[Cl])c2ccccc21` [CyPt], the “CyPt (%), mean” value ([2]; 5 mM GSH, 0min) was 100%, the “CyPt (%), mean” value ([2]; 5 mM GSH, 10 min) was 76.7055% and the “CyPt (%), mean” value ([2]; 5 mM GSH, 20 min) was 54.753%. The “CyPt (%), mean” value ([2]; 5 mM GSH, 30 min) was 42.9173%, the “CyPt (%), mean” value ([2]; 5 mM GSH, 40 min) was 28.9716% and the “CyPt (%), mean” value ([2]; 5 mM GSH, 50 min) was 13.7577%. The “CyPt (%), mean” value ([2]; 5 mM GSH, 60 min) was 1.569%, the “CyPt (%), mean” value ([2]; 10 mM GSH, 0min) was 100.00% and the “CyPt (%), mean” value ([2]; 10 mM GSH, 10 min) was 82.67%. For the same molecule, the “CyPt (%), mean” value ([2]; 10 mM GSH, 20 min) was 59.68%, the “CyPt (%), mean” value ([2]; 10 mM GSH, 30 min) was 38.50% and the “CyPt (%), mean” value ([2]; 10 mM GSH, 40 min) was 22.16%. For the same molecule, the “CyPt (%), mean” value ([2]; 10 mM GSH, 50 min) was 9.16% and the “CyPt (%), mean” value ([2]; 10 mM GSH, 60 min) was 0.00%.

Values joined by “and” are separate entries in the source; they are usually repeats but may differ in a detail not shown here. Equal values may be shown once.
